Assay results reported in patent publication US12076421B2, “Assessment of coronary heart disease with carbon dioxide” (priority 2011, dated 2024).
Some of these results come from one statement about several compounds together. For at least one compound, name, drawing or mass did not settle the structure.

Columns and labels:
[1] = test system: myocardial blood flow (MBF); experiment: 13N-ammonia PET myocardial blood flow, canines without coronary stenosis; type: in vivo; settings: intact canines
Procedure: We investigated whether a physiologically tolerable hypercapnia stimulus ( 25-mmHg increase in PaCO2) can increase myocardial blood flow (MBF) to that observed with adenosine in three groups of canines: (i) without coronary stenosis; (ii) subjected to non-flow limiting coronary stenosis; and (iii) following pre-administration of caffeine. These studies were conducted by prospectively and independently controlling PaCO2 and combining it with ^[…]-ammonia Positron Emission Tomography (PET) measurements, and the extent of effect on MBF due to hypercapnia was compared to adenosine. […] To address these aims, a clinically relevant animal model was used along with validated strategies for (i) precisely and rapidly establishing desired levels of PaCO2, while holding PaO2 constant; (ii) quantifying MBF in vivo; and (iii) image analysis to derive MBF values across the different coronary supply territories. We compared our findings to the effects of standard dose of adenosine in the same animal models with and without coronary stenosis to quantify MBF and flow deficit regions under peak tolerable PaCO2. To determine whether MBF response to PaCO2 overlaps the same mechanistic path as adenosine, we quantified MBF under hypercapnia and adenosine following caffeine administration. […]

[2] = test system: myocardial blood flow (MBF); experiment: 13N-ammonia PET myocardial blood flow and perfusion defect, canines with LAD coronary stenosis; type: in vivo; settings: for MPR in the LCx and RCA territories: p<0.05
Procedure: We investigated whether a physiologically tolerable hypercapnia stimulus ( 25-mmHg increase in PaCO2) can increase myocardial blood flow (MBF) to that observed with adenosine in three groups of canines: (i) without coronary stenosis; (ii) subjected to non-flow limiting coronary stenosis; and (iii) following pre-administration of caffeine. These studies were conducted by prospectively and independently controlling PaCO2 and combining it with ^[…]-ammonia Positron Emission Tomography (PET) measurements, and the extent of effect on MBF due to hypercapnia was compared to adenosine. The objectives of these studies were twofold: to investigate the effects of PaCO2 on MBF while minimizing contributions from factors that can unintentionally reduce or inaccurately report on sensitivity of PaCO2 on MBF; and to assess whether an independent, precise and rapid establishment of physiologically tolerable level of hypercapnia provides equivalent hyperemia as adenosine, a commonly used pharmacological stimulus for cardiac stress testing with and without pre-administration of caffeine. To address these aims, a clinically relevant animal model was used along with validated strategies for (i) precisely and rapidly establishing desired levels of PaCO2, while holding PaO2 constant; (ii) quantifying MBF in vivo; and (iii) image analysis to derive MBF values across the different coronary supply territories. We compared our findings to the effects of standard dose of adenosine in the same animal models with and without coronary stenosis to quantify MBF and flow deficit regions under peak tolerable PaCO2. To determine whether MBF response to PaCO2 overlaps the same mechanistic path as adenosine, we quantified MBF under hypercapnia and adenosine following caffeine administration. Studies were conducted as described in Yang, H-J et al., J. Nucl. Med. 58: 953-960 (2017), which is hereby incorporated by reference in its entirety. […] FIGS. 16A, 16B, 16E show the mean regional MBF in LAD, left circumflex artery (LCx) and right coronary artery (RCA) supply territories at rest, hypercapnia and adenosine. MBF values were not different at rest among the different supply territories (p>0.4, for all). […] MBF under hypercapnia was not different between the LCx and RCA territories (hypercapnia: p=0.21); the same was true under adenosine (p=0.50). For each myocardial supply territory, MBF under hypercapnia and adenosine were not different (p=1.00, for all). […] MPR under hypercapnia was not different between the LCx and RCA territories (hypercapnia: p=0.59); the same was true under adenosine (p=0.34). For each myocardial supply territory, MPR under hypercapnia and adenosine were not different (p>0.5 for all). […] Perfusion defect volumes and visual scoring under hypercapnia vs. adenosine were determined. […]

Row | SMILES | Mean global MPR [1] | MPR in LAD territories [2] | MPR in the LCx and RCA territories [2]
1 | Nc1ncnc2c1ncn2[C@@H]1O[C@H](CO)[C@@H](O)[C@H]1O [adenosine, reference compound] | greater than 2 | ≤ 2.0 | higher than 2.0
2 | O=C=O [CO2, carbon dioxide] | greater than 2 | ≤ 2.0 | higher than 2.0
